Results deposited as PubChem BioAssay AID504764 (Drosophila RNAi Screening Center, 2011)
In all, the deposit lists about 22,000 reagents; this is an unselected part of those that have a named target and a result. In the full data, 403 (1.9%) are marked active. 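Unnormalised raw counts per well; ratio z-scores behind the hit calls and whether each hit raises or lowers signal are not deposited.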 A plus sign joins genes that one reagent is predicted to hit. The record does not give: the amount of reagent.

Screen: 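Knock-downs that raise or lower a Notch target reporter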 (primary screen)
Cells: Drosophila Kc167 cells
Reagent: long dsRNA against Drosophila genes
Duration: about 5 days (4 days dsRNA, then 24 h after transfection)
Conditions: transfection of constitutively active membrane-tethered Notch lacking the extracellular domain, read 24 h later
Measurement: 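Firefly luciferase from an E(spl)m3 reporter with active Notch, plus control-promoter and uninduced reporter wells for normalisation; unnormalised counts, duplicate wells a and b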
Reading the numbers: induced reporter light, run 1, well a and induced reporter light, run 1, well b: higher = more light from the Notch target reporter with active Notch; control promoter light, run 1, well a and control promoter light, run 1, well b: higher = more light from the viral control promoter (cell number, transfection, viability); uninduced reporter light, run 1, well a: higher = more light from the Notch target reporter without active Notch
Rule for the call: 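Hit if the duplicate-averaged log2 ratio of induced to control-promoter light gives a plate-wise z beyond ±2, or induced to uninduced beyond ±1.8; weak-control or discordant-duplicate wells dropped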
Meaning of the calls: active = modifier hit (raised or lowered Notch signal); inactive = not a hit

The opening 3 records as a preview:
target | dsRNA | induced reporter light, run 1, well a | induced reporter light, run 1, well b | control promoter light, run 1, well a | control promoter light, run 1, well b | uninduced reporter light, run 1, well a | Call
CG8661 (GeneID 32720) | DRSC20115 | 1.26e5 | 1.14e5 | 1.33e5 | 1.09e5 | 14190 | inactive
CG31064 (GeneID 43277) | DRSC14756 | 1.56e5 | 1.62e5 | 2.07e5 | 2.21e5 | 14370 | inactive
CG31064 (GeneID 43277) | DRSC15941 | 1.56e5 | 1.56e5 | 2.31e5 | 2.04e5 | 13720 | inactive

Main list, repeating the preview:
target | dsRNA | induced reporter light, run 1, well a | induced reporter light, run 1, well b | control promoter light, run 1, well a | control promoter light, run 1, well b | uninduced reporter light, run 1, well a | Call
CG8661 (GeneID 32720) | DRSC20115 | 1.26e5 | 1.14e5 | 1.33e5 | 1.09e5 | 14190 | inactive
CG31064 (GeneID 43277) | DRSC14756 | 1.56e5 | 1.62e5 | 2.07e5 | 2.21e5 | 14370 | inactive
CG31064 (GeneID 43277) | DRSC15941 | 1.56e5 | 1.56e5 | 2.31e5 | 2.04e5 | 13720 | inactive
CG31064 (GeneID 43277) | DRSC15942 | 1.24e5 | 1.35e5 | 2.12e5 | 1.45e5 | 12120 | inactive
CG31064 (GeneID 43277) | DRSC15943 | 88460 | 1.11e5 | 1.28e5 | 1.29e5 | 9505 | inactive
Elo68beta (GeneID 39245) | DRSC09860 | 1.34e5 | 1.31e5 | 1.90e5 | 1.34e5 | 7260 | inactive
Patsas (GeneID 34634) | DRSC02975 | 2.55e5 | 2.34e5 | 2.22e5 | 2.16e5 | 17640 | inactive
CG9795 (GeneID 40545) | DRSC12336 | 71880 | 61945 | 32295 | 34975 | 7985 | inactive
NELF-B (GeneID 31681) | DRSC17734 | 1.40e5 | 1.04e5 | 1.62e5 | 1.48e5 | 13435 | inactive
CG17159 + CG17162 | DRSC20899 | 68175 | 89675 | 98205 | 1.20e5 | 11420 | inactive
CG17159 + CG17162 | DRSC20900 | 93390 | 97290 | 1.50e5 | 1.41e5 | 11510 | inactive
Gr98d (GeneID 43309) | DRSC14571 | 1.88e5 | 1.32e5 | 2.10e5 | 2.12e5 | 13455 | inactive
CG17721 (GeneID 41354) | DRSC15253 | 71770 | 65310 | 65540 | 46280 | 3328 | inactive
CDK2AP1 (GeneID 32050) | DRSC19800 | 1.95e5 | 1.60e5 | 1.99e5 | 1.43e5 | 12225 | inactive
cv (GeneID 44510) | DRSC17833 | 1.45e5 | 1.51e5 | 3.22e5 | 2.75e5 | 11875 | inactive
CG12206 (GeneID 31316) | DRSC17828 | 1.17e5 | 1.07e5 | 1.61e5 | 1.79e5 | 8230 | inactive
MFS14 (GeneID 46085) | DRSC06524 | 1.03e5 | 1.10e5 | 1.98e5 | 1.51e5 | 8490 | inactive
CCHa1-R (GeneID 37004) | DRSC06456 | 1.06e5 | 69655 | 96975 | 98375 | 6632 | inactive
CCHa1-R (GeneID 37004) | DRSC06715 | 1.52e5 | 1.10e5 | 1.07e5 | 1.03e5 | 7615 | inactive
U2A (GeneID 35713) | DRSC06445 | 1.88e5 | 2.02e5 | 2.51e5 | 2.10e5 | 14775 | inactive
CG7742 (GeneID 33750) | DRSC03066 | 1.71e5 | 1.64e5 | 1.46e5 | 1.83e5 | 15680 | inactive
CG3165 (GeneID 33503) | DRSC00573 | 1.88e5 | 2.03e5 | 2.12e5 | 2.27e5 | 16792 | inactive
CG42531 (GeneID 8673972) | DRSC05318 | 1.88e5 | 2.18e5 | 3.18e5 | 3.20e5 | 15538 | inactive
PGRP-SB1 (GeneID 39870) | DRSC11090 | 1.49e5 | 1.27e5 | 2.27e5 | 1.82e5 | 7375 | inactive
CG9154 (GeneID 33858) | DRSC03150 | 1.46e5 | 1.52e5 | 1.46e5 | 1.65e5 | 15542 | inactive
CG15160 (GeneID 35109) | DRSC02461 | 81930 | 57190 | 74340 | 68715 | 2592 | inactive
CG3502 + CG9863 | DRSC04578 | 1.56e5 | 1.37e5 | 1.44e5 | 1.37e5 | 9920 | inactive
Trf5 (GeneID 33454) | DRSC00412 | 1.62e5 | 1.45e5 | 1.37e5 | 1.24e5 | 11025 | inactive
CG15570 (GeneID 31366) | DRSC18058 | 1.20e5 | 1.22e5 | 2.38e5 | 1.90e5 | 9635 | inactive
CG32017 (GeneID 317823) | DRSC17183 | 51185 | 58655 | 71815 | 84230 | 4515 | inactive
LManI (GeneID 34436) | DRSC02838 | 1.20e5 | 1.17e5 | 69240 | 90420 | 13542 | inactive
CG3149 (GeneID 31489) | DRSC17732 | 2.09e5 | 2.03e5 | 2.44e5 | 2.20e5 | 17060 | inactive
Adsl (GeneID 42051) | DRSC15500 | 1.65e5 | 1.62e5 | 1.76e5 | 1.57e5 | 16680 | inactive
lectin-46Cb (GeneID 53522) | DRSC06611 | 1.71e5 | 1.58e5 | 2.12e5 | 2.08e5 | 18755 | inactive
Snp (GeneID 37511) | DRSC04524 | 31510 | 28355 | 29805 | 27550 | 2275 | inactive
Elp1 (GeneID 41399) | DRSC14250 | 1.04e5 | 1.24e5 | 92635 | 76810 | 10110 | inactive
CG15912 (GeneID 31385) | DRSC18105 | 1.38e5 | 1.37e5 | 2.64e5 | 2.82e5 | 11235 | inactive
CG31436 (GeneID 318734) | DRSC14661 | 1.12e5 | 1.23e5 | 1.55e5 | 1.57e5 | 10515 | inactive
HIP + HIP-R | DRSC18245 | 1.66e5 | 2.13e5 | 2.17e5 | 2.43e5 | 11525 | inactive
fz4 (GeneID 31659) | DRSC18780 | 1.38e5 | 1.53e5 | 3.04e5 | 2.90e5 | 11045 | inactive
CG18371 (GeneID 36556) | DRSC06733 | 85870 | 94950 | 99595 | 1.07e5 | 7530 | inactive
SmydA-5 (GeneID 35538) | DRSC04867 | 1.43e5 | 1.26e5 | 1.35e5 | 1.24e5 | 9470 | inactive
CG34267 (GeneID 5740365) | DRSC07881 | 2.11e5 | 1.90e5 | 2.02e5 | 1.90e5 | 15565 | inactive
Or1a (GeneID 30978) | DRSC18689 | 1.41e5 | 1.07e5 | 2.90e5 | 2.09e5 | 8832 | inactive
CG7483 (GeneID 40987) | DRSC16249 | 1.21e5 | 1.34e5 | 1.09e5 | 91200 | 7315 | inactive
CG7483 (GeneID 40987) | DRSC22432 | – | – | – | – | – | active
CG3376 (GeneID 37884) | DRSC04362 | 1.03e5 | 1.25e5 | 65735 | 74755 | 6570 | inactive
udd (GeneID 35781) | DRSC06720 | 2.92e5 | 2.78e5 | 3.08e5 | 2.78e5 | 24940 | inactive
scramb1 (GeneID 326186) | DRSC09724 | 1.60e5 | 75190 | 1.48e5 | 88680 | 8190 | inactive
scramb1 (GeneID 326186) | DRSC10667 | 96480 | 1.06e5 | 84780 | 80365 | 5885 | inactive
scramb1 (GeneID 326186) | DRSC10668 | 2.21e5 | 1.33e5 | 2.63e5 | 1.59e5 | 9920 | inactive
